In patent US20240100063A1, “COMBINATION THERAPY OF PD-1 AXIS BINDING ANTAGONISTS AND LRRK2 INHITIBORS” (Hoffmann-La Roche Inc., priority 2020, published 2024):
At least one structure is not confirmed: it was looked up by name or label, or the drawing left a doubt.

System: 403 non-mutated kinases
Assay: KINOMEScan in vitro kinase selectivity assay
Format: binding, human
Description: FIG. 10: In vitro kinase selectivity test. […] As a reference, the pan-kinase inhibitor sunitinib was tested.
As a reference, the pan-kinase inhibitor sunitinib was tested.
Kinases other than LRRK2 are herein referred to as unrelated kinases. A selectivity score S can be determined to quantify selectivity, as shown in Example 8. In one embodiment, the selectivity score S(65) of the inhibitor (e.g. the LRRK2 inhibitor) is defined as the ratio of number of kinases inhibited by 65% of binding to their ligand as compared to binding to their ligand without the inhibitor divided by the number of kinases tested. […] In one embodiment, the selectivity score S is determined for a specified concentration (e.g., 0.1 μM, 1 μM, or 10 μM) of the inhibitor (e.g. the LRRK2 inhibitor). Kinase—ligand binding (and inhibition thereof) can be measured using assays as known in the art and hereinbefore described and as described in Example 8.
The in vitro kinase selectivity for the tested compounds were determined by running a KINOMEScan® (DiscoverX, CA, USA). […] Selectivity scores S(65), S(90) and S (99) in FIG. 11 are calculated as the ratio of number of non-mutated kinases inhibited by 65%, 90 or 99% divided by the total number of non-mutated kinases tested.

## CCN(CC)CCNC(=O)c1c(C)[nH]c(/C=C2\C(=O)Nc3ccc(F)cc32)c1C [sunitinib]
At 0.1 μM, 403 non-mutated kinases
  number of different kinases whose binding is inhibited by 90% or more: 14
At a concentration to inhibit >90% LRRK2 (11.1M)
  number of unrelated kinases inhibited to >90%: 71
